# Patent US8853238B2, “Fused heterocyclic compound and use thereof for pest control” (Sumitomo Chemical Company, Limited, priority 2010, dated 2014)
# Some entries share one result that the patent states for a list of compounds.
# Tested on: Plutella xylostella
# Assay: Test Example 7: spray on cabbage, release of Plutella xylostella larvae
# Format: in vivo
# Conditions: 500 ppm active ingredient; cabbage sprayed with 20 mL/cup; five second instar larvae of Plutella xylostella; 5 days at 25° C.
row,SMILES,Death rate
1,"CC[S+]([O-])c1ccccc1-c1nc2cc(C#N)cnc2n1C (stereo not drawn) [Present Compound 49, 6-cyano-2-(2-ethylsulfinylphenyl)-3-methyl-3H-imidazo[4,5-b]pyridine]",≥ 80%
2,"CCSc1ccccc1-c1nc2cc(-c3ccc(F)cc3)cnc2n1C [Present Compound 64, 2-(2-ethylsulfanylphenyl)-6-(4-fluorophenyl)-3-methyl-3H-imidazo[4,5-b]pyridine]",≥ 80%
3,"CCS(=O)(=O)c1cc(C(F)(F)F)ccc1-c1nc2cc(C(F)(F)F)cnc2[nH]1 [compound 345, 2-(2-ethylsulfonyl-4-trifluoromethyl-phenyl)-6-trifluoromethyl-3H-imidazo[4,5-b]pyridine]",≥ 80%
4,"CC[S+]([O-])c1ccccc1-c1nc2cc(-c3ccccc3F)cnc2n1C (stereo not drawn) [Present Compound 59, 2-(2-ethylsulfinylphenyl)-6-(2-fluorophenyl)-3-methyl-3H-imidazo[4,5-b]pyridine]",≥ 80%
5,"CCCn1c(-c2ccccc2[S+]([O-])CC)nc2cc(C(F)(F)F)cnc21 (stereo not drawn) [Present Compound 25, 2-(2-ethylsulfinylphenyl)-3-propyl-6-trifluoromethyl-3H-imidazo[4,5-b]pyridine]",≥ 80%
6,"CCSc1ccccc1-c1nc2ncc(C(F)(F)F)cc2n1C [Present Compound 66, 2-(2-ethylsulfanylphenyl)-1-methyl-6-trifluoromethyl-1H-imidazo[4,5-b]pyridine]",≥ 80%
